Percent effect of library compounds

The values are deposited in ChEMBL (CHEMBL3988442, “University of Dundee, Small-Polar-MMV Screening Library” (2021)).

Each number is a percent effect as filed. How 0% and 100% were set is not recorded. Most values in the screen are low, and negative values occur. Compounds were drawn at random from those tested, without regard to their results.

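Assay of Toxoplasma gondii numbers, read through their beta-galactosidase reporter with a colour substrate. Concentration: 50 µM. Higher reads as fewer parasites (inferred from which compounds were picked for retests). Of about 18,000 compounds tested this way, about 170 (0.94%) reached 50% or more in at least one test.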

- CCOC(=O)Cc1nc2nc(C)cc(C)n2n1 | -0.8035%
- COCCNC(=O)C1CN(Cc2ccccc2)CCO1 (stereo not shown) | -12.85%
- CNC(=O)C1(C)CCN(C(=O)c2n[nH]c(N)c2Cl)CC1 | 1.45%
- Cc1cc(NC(C)C(N)=O)nn1-c1cccc(Cl)c1 (stereo not shown) | -0.5017%
- CCN(CC(=O)NC(C)C)Cc1nccn1CC | -6.66%
- Cc1cc(C(=O)NCc2cccc(F)c2)no1 | -38.44%
- CN(CCN1CCCC1=O)C(=O)c1ccc(Br)cc1O | -38.82%
- NCc1ccc(N2CC=CC2)cc1 | 17.18%
- CSc1ccc(OCC(=O)NC2CCS(=O)(=O)C2)cc1 (stereo not shown) | -6.578%
- COC(=O)CC1CCCCN1CC(N)=O (stereo not shown) | -10.39%
- CNC(=O)CCSc1ccc2c(c1)OCCO2 | 0.7135%
- NC(=O)c1ccccc1NC(=O)CSc1ccccn1 | 1.95%
- Cc1cccc(CC(=O)NCC2CCCNC2)c1 (stereo not shown) | -6.216%
- CCCn1nccc1C(=O)N1CCn2cncc2C1 | -3.702%
- COCc1nc(CN)cs1 | -40.38%
- Cc1ccccc1CNCCS(=O)(=O)N1CCOCC1 | 1.463%
- CCOCCOC1CNC1 | 0.0541%
- CCC(C)c1csc(NC(=O)NCC(=O)NC)n1 (stereo not shown) | 1.299%
- CC(C)OCc1cccc(NC(C)C(=O)NC(N)=O)c1 (stereo not shown) | -11.36%
- O=C(NCCCN1CCOCC1)c1cc(Br)c[nH]1 | -19.01%
- CCCc1noc(CNc2ccccc2C(N)=O)n1 | -5.643%
- COc1cc(C#N)cnc1C | -2.057%
- CCN1C(=O)C[C@H](CO)[C@H]1c1cccnc1 | 0.2372%
- CCC1CCC(=O)N1 (stereo not shown) | 7.243%
- CCC(=O)N1CCCN(CC2CC2)CC1 | -2.834%
- Cc1c(N)cnn1C1CCOCC1 | -9.55%
- Cc1noc(C)c1C(=O)N1C[C@@H](CO)[C@H](N(C)C)C1 | 39.85%
- Cc1ccc(C2COCCN2)o1 (stereo not shown) | 3.644%
- CC(C(N)=O)N(C)CC(=O)N(C)C1CCCCC1 (stereo not shown) | -3.55%
- O=S1(=O)CCN2CCNCC2C1 (stereo not shown) | -3.972%
- COCC(=O)NC1CNC1 | -1.179%
- FC(F)(F)CNC1COC1 | 11.58%
- Cn1nccc1CCC(=O)N[C@H]1CC[C@@H](N)CC1 | -1.393%
- CN(C)c1cc(CNC(=O)C2CCC(=O)N2)ccn1 (stereo not shown) | 31.09%
- COc1c(C)cnc(CNC(=O)N(C)C(C)C)c1C | -0.2326%
- Cc1nc(C)c(C(=O)NCc2ncoc2C)s1 | -1.836%
- O=C(NCCc1ccccn1)C1CCC1 | -6.333%
- CC(CO)(NCCCS(C)(=O)=O)C1CCCCC1 (stereo not shown) | 13.48%
- NCC1(NC(=O)c2n[nH]c3c2CCC3)CCCC1 | -3.741%
- O=C(NCCCc1ncc[nH]1)[C@H]1CCC[C@H](O)C1 | 14.65%
- CC(C)C(=O)N1CCC(C(N)=O)(c2ccccc2)CC1 | 12.17%
- NC(=O)COc1ccccc1CNC1CCCC1 | 5.304%
- COCC(C)Nc1ccc2nnc(C3CC3)n2n1 (stereo not shown) | -0.3493%
- Cc1nc(CN2CCN(c3ncc(Br)cn3)CC2)n[nH]1 | -2.619%
- COC1CCN(CC(=O)N2CCCCC2C)CC1 (stereo not shown) | 7.748%
- O=C(NC(C1CCNCC1)[C@H]1C[C@H](O)C1)c1cc[nH]n1 (stereo partly shown) | 0.3696%

For reference, 3 entries once more:

* CC(CO)(NCCCS(C)(=O)=O)C1CCCCC1 (stereo not shown) : 13.48%
* Cc1cccc(CC(=O)NCC2CCCNC2)c1 (stereo not shown) : -6.216%
* O=C(NCCCc1ncc[nH]1)[C@H]1CCC[C@H](O)C1 : 14.65%